Here are results for three substances from PMC5058744.

Protein sequences, listed by entry. Tags and fused reporters are not part of them.
UniProt O94810: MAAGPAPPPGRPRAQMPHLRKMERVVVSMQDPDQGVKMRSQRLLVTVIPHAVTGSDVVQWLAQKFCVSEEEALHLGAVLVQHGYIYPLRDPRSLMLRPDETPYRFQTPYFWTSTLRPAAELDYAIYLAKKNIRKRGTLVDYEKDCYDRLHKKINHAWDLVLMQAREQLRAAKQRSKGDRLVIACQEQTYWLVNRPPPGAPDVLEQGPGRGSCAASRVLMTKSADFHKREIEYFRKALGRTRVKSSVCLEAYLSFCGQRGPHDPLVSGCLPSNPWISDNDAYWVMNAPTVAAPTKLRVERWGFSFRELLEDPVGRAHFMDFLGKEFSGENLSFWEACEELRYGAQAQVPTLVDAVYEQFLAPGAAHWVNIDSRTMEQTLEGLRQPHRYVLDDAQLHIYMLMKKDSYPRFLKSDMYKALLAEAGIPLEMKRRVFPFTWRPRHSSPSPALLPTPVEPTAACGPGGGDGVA
UniProt P61586: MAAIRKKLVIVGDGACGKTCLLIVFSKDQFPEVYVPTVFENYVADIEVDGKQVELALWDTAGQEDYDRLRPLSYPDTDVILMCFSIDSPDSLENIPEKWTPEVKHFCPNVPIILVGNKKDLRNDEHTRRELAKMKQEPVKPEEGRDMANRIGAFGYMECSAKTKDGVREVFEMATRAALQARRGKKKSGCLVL
UniProt O14775: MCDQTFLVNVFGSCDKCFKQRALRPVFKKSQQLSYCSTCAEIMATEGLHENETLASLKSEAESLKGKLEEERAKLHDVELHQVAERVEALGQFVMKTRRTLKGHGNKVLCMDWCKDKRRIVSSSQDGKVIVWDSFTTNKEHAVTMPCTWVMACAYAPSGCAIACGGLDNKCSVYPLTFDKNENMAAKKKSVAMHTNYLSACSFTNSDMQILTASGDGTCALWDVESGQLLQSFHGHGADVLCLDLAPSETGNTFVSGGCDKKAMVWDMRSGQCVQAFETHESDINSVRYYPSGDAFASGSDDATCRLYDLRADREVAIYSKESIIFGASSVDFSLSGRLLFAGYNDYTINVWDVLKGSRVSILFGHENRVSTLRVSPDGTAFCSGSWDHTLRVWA
UniProt P60953: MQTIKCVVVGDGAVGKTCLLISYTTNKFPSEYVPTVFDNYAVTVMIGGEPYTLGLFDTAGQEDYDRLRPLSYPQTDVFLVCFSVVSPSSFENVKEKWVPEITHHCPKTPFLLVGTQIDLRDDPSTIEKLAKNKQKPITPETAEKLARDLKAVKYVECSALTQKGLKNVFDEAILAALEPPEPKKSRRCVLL

Results are given in words; binding and its absence hold for the method and conditions named. Binding seen in cells or lysates may run through a third protein. Some binding calls cover weakened binding; strength is not graded here.

The test concerns the target Regulator of G protein signaling 11 (human) (UniProt O94810). As to the kind of experiment: co-IP; CL1-0 R+G stable transfectants fixed with 4% paraformaldehyde for 20 min, lysed in RIPA buffer; 500 ug pre-cleared lysate with home-made murine anti-RGS11 antibody (20 ug) for 2 h, then Protein A/G Sepharose at 4°C overnight; blotted for RGS11, GNB5, RhoA, Rac1, CDC42.
For the substance RhoA (from UniProt P61586 1-193), the binding entry is “no binding”.
On to “guanine nucleotide-binding protein beta-5 (from UniProt O14775 1-395)”, for which the binding result is “binds”.
For the substance CDC42 (from UniProt P60953 1-191), the binding result was “no binding”.
